Data as given in PubChem BioAssay AID1671195 (Yale University, 2021).
This is an unselected part of about 22,000 deposited reagents. About 1,510 of all reagents (6.9%) count as active. 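Active includes knockdowns raising or lowering LDL uptake; positive z-scores mean more uptake, negative mean less.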

Test: 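Knockdowns that increase or decrease uptake of fluorescent LDL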 (primary screen)
Cells: human Huh7 hepatoma cells
Reagent: siRNA pool against human genes, 18 nM
Timing: about 2 to 2.5 days of knockdown, then 8 h LDL uptake
Treatment: DiI-labelled LDL at 30 µg/ml for 8 h, in lipoprotein-deficient serum medium
Read-out: 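Fluorescent LDL signal imaged in cells, scaled to the plate median, robust z-score for each replicate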
Scale: robust z-score: higher = more LDL uptake after knockdown
Hit rule: 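a gene counts as active if at least two replicate z-scores exceed ±2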

| Target gene | PubChem SID | robust z-score, replicate 1 | robust z-score, replicate 2 | robust z-score, replicate 3 | activity call |
| --- | --- | --- | --- | --- | --- |
| NTS (neurotensin) | SID442891495 | -0.112 | 0.664 | 0.286 | inactive |
| LOC390930 (retired record) | SID442903726 | -1.4 | -1.39 | -1.33 | inactive |
| LOC388019 (retired record) | SID442895983 | 0.0917 | 0.0258 | -0.795 | inactive |
| EPHX3 (epoxide hydrolase 3) | SID442899693 | -0.439 | -1.09 | -0.44 | inactive |
| SIGLEC17P (sialic acid binding Ig like lectin 17, pseudogene) | SID442904055 | -1.44 | -1.46 | -1.52 | inactive |
| MRAP (melanocortin 2 receptor accessory protein) | SID442884674 | 3.26 | 1.22 | 1.54 | inactive |
| TMOD2 (tropomodulin 2) | SID442892743 | 0.563 | -0.145 | -0.0293 | inactive |
| SUDS3 (SIN3A corepressor complex component SDS3) | SID442901080 | -0.736 | -1.21 | -0.592 | inactive |
| POFUT4 (protein O-fucosyltransferase 4) | SID442892232 | 0.238 | -0.0898 | 0.435 | inactive |
| GYG2 (glycogenin 2) | SID442891343 | 0.647 | -0.0253 | 0.272 | inactive |
| NKPD1 (NTPase KAP family P-loop domain containing 1) | SID442890415 | 0.374 | 0.53 | 0.355 | inactive |
| LPO (lactoperoxidase) | SID442901912 | -0.98 | -0.765 | -1.2 | inactive |
| CARF (calcium responsive transcription factor) | SID442899163 | -0.866 | -0.812 | -0.0793 | inactive |
| IFNA21 (interferon alpha 21) | SID442892014 | 0.0902 | 0.145 | 0.422 | inactive |
| ENPP1 (ectonucleotide pyrophosphatase/phosphodiesterase 1) | SID442902735 | -1.1 | -0.832 | -1.48 | inactive |
| OSR1 (odd-skipped related transcription factor 1) | SID442896630 | 0.0243 | 0.226 | -1.13 | inactive |
| RPS6KC1 (ribosomal protein S6 kinase C1) | SID442901500 | -0.33 | -1.94 | -0.459 | inactive |
| DNA2 (DNA replication helicase/nuclease 2) | SID442904569 | -1.44 | -1.89 | -1.82 | inactive |
| ZSCAN25 (zinc finger and SCAN domain containing 25) | SID442884123 | 1.73 | 2.04 | 1.99 | active |
| SSH2 (slingshot protein phosphatase 2) | SID442899203 | -0.537 | -0.879 | -0.356 | inactive |
| FDPSP7 (farnesyl diphosphate synthase pseudogene 7) | SID442883114 | 5.66 | 5.14 | 5.68 | active |
| B3GALNT1 | SID442898458 | -0.035 | -1.1 | -0.368 | inactive |
| CCZ1P-OR7E38P (CCZ1P-OR7E38P readthrough) | SID442892070 | 0.235 | 0.319 | 0.0808 | inactive |
| EFHB (EF-hand domain family member B) | SID442894654 | -0.0808 | 0.00769 | -0.189 | inactive |
| CLXN (calaxin) | SID442885132 | 1.03 | 2.19 | 1.77 | inactive |
| CDIPTOSP (CDIP transferase opposite strand, pseudogene) | SID442904010 | -1.3 | -1.68 | -1.41 | inactive |
| C1QB (complement C1q B chain) | SID442884732 | 1.4 | 2.43 | 1.88 | inactive |
| BLTP2 (bridge-like lipid transfer protein family member 2) | SID442897145 | 0.684 | -0.405 | -1.34 | inactive |
| UBTFL7 (UBTF like 7 (pseudogene)) | SID442891579 | 0.512 | 1.01 | -0.717 | inactive |
| FXYD1 (FXYD domain containing ion transport regulator 1) | SID442891046 | 0.191 | 0.502 | 0.321 | inactive |
| TBX5 (T-box transcription factor 5) | SID442883192 | 3.8 | 4.33 | 4 | active |
| AIFM2 (AIF family member 2, ferroptosis suppressor) | SID442885322 | 1.79 | 1.19 | 1.72 | inactive |
| KPNA5 (karyopherin subunit alpha 5) | SID442890963 | -0.364 | 0.677 | 0.731 | inactive |
| C5orf47 (chromosome 5 open reading frame 47) | SID442883827 | 3.31 | 2.66 | 0.81 | active |
| FBRS (fibrosin) | SID442884896 | 1.76 | 1.6 | 2.03 | inactive |
| DNAI1 (dynein axonemal intermediate chain 1) | SID442887294 | 1.5 | 0.879 | 0.456 | inactive |
| PAH (phenylalanine hydroxylase) | SID442904199 | -1.52 | -1.49 | -1.56 | inactive |
| LOC401721 (retired record) | SID442900538 | -0.973 | -0.744 | -0.601 | inactive |
| MSL3B (MSL complex subunit 3B) | SID442888994 | 1.34 | 0.356 | 0.191 | inactive |
| HPF1P1 (HPF1 pseudogene 1) | SID442888632 | 0.518 | 0.908 | 0.636 | inactive |
| NFYBP1 (NFYB pseudogene 1) | SID442893669 | 0.00842 | 0.0651 | -0.00297 | inactive |
| BPESC1 (blepharophimosis, epicanthus inversus and ptosis candidate 1) | SID442903378 | -1.23 | -1.15 | -1.48 | inactive |
| LINC02433 (long independently transcribed non-coding RNA 2433) | SID442894553 | 0.0487 | -0.017 | -0.255 | inactive |
| ZACN (zinc activated ion channel) | SID442892384 | 0.144 | -0.395 | 0.773 | inactive |
| GFOD1 (Gfo/Idh/MocA-like oxidoreductase domain containing 1) | SID442886690 | 1.04 | 1.48 | 0.74 | inactive |
| GFOD1 (Gfo/Idh/MocA-like oxidoreductase domain containing 1) | SID442902938 | -1.28 | -1.05 | -1.21 | inactive |
| CES1 (carboxylesterase 1) | SID442897061 | -0.991 | 0.154 | -0.189 | inactive |
| CTNNBL1 (catenin beta like 1) | SID442884269 | -2.01 | -0.661 | -2.31 | active |
| ANKRD13C (ankyrin repeat domain 13C) | SID442896762 | -0.185 | -0.291 | -0.453 | inactive |
| SOX18 (SRY-box transcription factor 18) | SID442888803 | 0.341 | 0.679 | 0.954 | inactive |
| AGRN (agrin) | SID442892205 | 0.142 | 0.27 | 0.18 | inactive |
| KRTAP1-5 (keratin associated protein 1-5) | SID442884149 | 1.3 | 2.05 | 2.3 | active |
| GPBP1 (GC-rich promoter binding protein 1) | SID442887874 | -0.129 | 1.58 | 1.03 | inactive |
| APOBEC3C (apolipoprotein B mRNA editing enzyme catalytic subunit 3C) | SID442900109 | -0.711 | -0.944 | -0.485 | inactive |
| ALDH4A1 (aldehyde dehydrogenase 4 family member A1) | SID442903803 | -1.22 | -1.08 | -1.89 | inactive |
| TRH (thyrotropin releasing hormone) | SID442885876 | 1.07 | 1.35 | 1.6 | inactive |
| OR5J2 (olfactory receptor family 5 subfamily J member 2) | SID442890772 | 0.247 | 0.422 | 0.442 | inactive |
| CELA3A (chymotrypsin like elastase 3A) | SID442904628 | -1.93 | -1.69 | -1.67 | inactive |
| LOC440853 (retired record) | SID442896540 | -3.46 | 1.28 | 1.34 | inactive |
| TUBB1 (tubulin beta 1 class VI) | SID442900020 | -0.346 | -0.993 | -0.764 | inactive |
| CHD2 (chromodomain helicase DNA binding protein 2) | SID442903160 | -1.04 | -1.36 | -1.29 | inactive |
| VSTM2L (V-set and transmembrane domain containing 2 like) | SID442884752 | -2.07 | -1.87 | -1.87 | inactive |
| ZNF225 (zinc finger protein 225) | SID442886168 | 1.01 | 1.86 | 0.867 | inactive |
| ABI1 (abl interactor 1) | SID442890638 | 0.473 | -1.16 | 1.85 | inactive |
| LOC391429 (retired record) | SID442892972 | 1.17 | -0.593 | -0.27 | inactive |
| CDH7 (cadherin 7) | SID442901430 | -0.987 | -0.653 | -1.06 | inactive |
| PIK3R5 (phosphoinositide-3-kinase regulatory subunit 5) | SID442889335 | 1.68 | 0.0432 | 0.0024 | inactive |
| M1AP (meiosis 1 associated protein) | SID442894695 | -0.761 | 0.516 | -0.027 | inactive |

Single entries from the list:
For “activity call”, AIFM2 (AIF family member 2, ferroptosis suppressor) [SID442885322] has inactive
Under “robust z-score, replicate 1”, C5orf47 (chromosome 5 open reading frame 47) [SID442883827] reads 3.31
KRTAP1-5 (keratin associated protein 1-5) [SID442884149], robust z-score, replicate 3: 2.3
Under “robust z-score, replicate 1”, ANKRD13C (ankyrin repeat domain 13C) [SID442896762] has -0.185
FXYD1 (FXYD domain containing ion transport regulator 1) [SID442891046], robust z-score, replicate 3 = 0.321
Value of CCZ1P-OR7E38P (CCZ1P-OR7E38P readthrough) [SID442892070] under “activity call”: inactive
